These are yes or no findings as the source states them, for the method shown. In cells and extracts the contact can be indirect. Some results given as binding are weak or reduced against the parent protein; the word gives no strength.
T1: TRAF6 (mouse (endogenous in primary EPCs)) (UniProt P70196)
T1 sequence: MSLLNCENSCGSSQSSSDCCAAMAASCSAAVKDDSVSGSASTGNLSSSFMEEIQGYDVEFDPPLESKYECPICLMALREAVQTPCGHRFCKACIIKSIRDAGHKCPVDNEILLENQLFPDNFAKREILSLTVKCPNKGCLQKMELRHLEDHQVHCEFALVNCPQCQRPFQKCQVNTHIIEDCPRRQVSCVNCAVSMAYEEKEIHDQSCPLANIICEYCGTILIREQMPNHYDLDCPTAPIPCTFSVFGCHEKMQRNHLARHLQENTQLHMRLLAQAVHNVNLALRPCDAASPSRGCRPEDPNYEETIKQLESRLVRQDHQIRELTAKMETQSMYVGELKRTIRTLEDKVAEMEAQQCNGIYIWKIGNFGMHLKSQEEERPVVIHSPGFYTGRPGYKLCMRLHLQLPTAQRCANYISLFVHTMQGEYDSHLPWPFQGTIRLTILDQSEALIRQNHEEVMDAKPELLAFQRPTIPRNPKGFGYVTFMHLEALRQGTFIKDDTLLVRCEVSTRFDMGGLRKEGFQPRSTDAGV

Amino acid sequences for entries named in this document (tags omitted). Residues count along the entry.
UniProt Q62406: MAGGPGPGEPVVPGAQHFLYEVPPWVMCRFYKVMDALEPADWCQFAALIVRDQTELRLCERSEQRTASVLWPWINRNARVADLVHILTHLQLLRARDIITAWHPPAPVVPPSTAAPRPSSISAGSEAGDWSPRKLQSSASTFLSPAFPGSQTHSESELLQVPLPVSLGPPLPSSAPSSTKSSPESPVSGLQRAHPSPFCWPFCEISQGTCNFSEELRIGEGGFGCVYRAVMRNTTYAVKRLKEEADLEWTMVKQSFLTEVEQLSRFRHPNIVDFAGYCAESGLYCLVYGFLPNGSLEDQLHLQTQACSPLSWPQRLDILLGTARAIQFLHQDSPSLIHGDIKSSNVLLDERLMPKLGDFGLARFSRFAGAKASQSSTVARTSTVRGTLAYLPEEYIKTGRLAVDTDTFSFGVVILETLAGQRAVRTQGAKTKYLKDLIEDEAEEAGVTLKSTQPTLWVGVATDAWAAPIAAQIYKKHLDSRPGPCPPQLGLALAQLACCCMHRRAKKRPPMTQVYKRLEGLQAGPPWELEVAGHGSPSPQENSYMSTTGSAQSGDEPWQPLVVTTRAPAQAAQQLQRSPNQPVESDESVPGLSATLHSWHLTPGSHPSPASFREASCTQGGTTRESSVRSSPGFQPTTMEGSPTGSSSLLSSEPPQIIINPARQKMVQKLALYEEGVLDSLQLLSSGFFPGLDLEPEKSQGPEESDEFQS
UniProt P10923, residues 17-294: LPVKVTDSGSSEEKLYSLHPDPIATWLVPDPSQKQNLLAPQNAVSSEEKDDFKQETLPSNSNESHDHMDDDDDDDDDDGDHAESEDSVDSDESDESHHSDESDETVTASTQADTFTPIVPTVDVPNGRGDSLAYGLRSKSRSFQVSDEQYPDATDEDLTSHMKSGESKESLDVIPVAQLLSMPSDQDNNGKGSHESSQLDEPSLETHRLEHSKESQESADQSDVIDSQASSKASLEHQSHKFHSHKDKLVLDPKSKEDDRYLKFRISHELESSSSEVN


How the values were obtained:
[1] = target: T1, TRAF6 (mouse (endogenous in primary EPCs)); experiment: co-IP; endogenous proteins in lysates (1 mg) of mouse EPCs treated with TNF-α (shNC or shOPN EPCs for IRAK1-TRAF6); 5 µg anti-IRAK1 or anti-TRAF6 on Protein G Dynabeads, 4 °C overnight; Western blot
[2] = target: IRAK1 (mouse (endogenous in primary EPCs)) (UniProt Q62406); experiment: co-IP; endogenous proteins in lysates of mouse EPCs under normal conditions (no TNF-α); anti-IRAK1 or anti-TRAF6 on Protein G Dynabeads, 4 °C overnight; Western blot
[3] = target: IRAK1 (mouse (endogenous in primary EPCs)) (UniProt Q62406); experiment: co-IP; endogenous proteins in lysates (1 mg) of mouse EPCs treated with TNF-α (shNC or shOPN EPCs for IRAK1-TRAF6); 5 µg anti-IRAK1 or anti-TRAF6 on Protein G Dynabeads, 4 °C overnight; Western blot

binding [1] | binding [3] | Molecule | binding [2]
binds |  | IRAK1 (from UniProt Q62406 1-710) | 
 | binds | Osteopontin (from UniProt P10923 17-294) | no binding (condition: without TNF-α (normal conditions))
 | binds | TRAF6 (protein, UniProt P70196 1-530) MSLLNCENSCGSSQSSSDCCAAMAASCSAAVKDDSVSGSASTGNLSSSFMEEIQGYDVEFDPPLESKYECPICLMALREAVQTPCGHRFCKACIIKSIRDAGHKCPVDNEILLENQLFPDNFAKREILSLTVKCPNKGCLQKMELRHLEDHQVHCEFALVNCPQCQRPFQKCQVNTHIIEDCPRRQVSCVNCAVSMAYEEKEIHDQSCPLANIICEYCGTILIREQMPNHYDLDCPTAPIPCTFSVFGCHEKMQRNHLARHLQENTQLHMRLLAQAVHNVNLALRPCDAASPSRGCRPEDPNYEETIKQLESRLVRQDHQIRELTAKMETQSMYVGELKRTIRTLEDKVAEMEAQQCNGIYIWKIGNFGMHLKSQEEERPVVIHSPGFYTGRPGYKLCMRLHLQLPTAQRCANYISLFVHTMQGEYDSHLPWPFQGTIRLTILDQSEALIRQNHEEVMDAKPELLAFQRPTIPRNPKGFGYVTFMHLEALRQGTFIKDDTLLVRCEVSTRFDMGGLRKEGFQPRSTDAGV | 
